In patent US11168052B2, “Carbamate derivative compounds, processes for preparing them and their uses” (BIO-PHARM SOLUTIONS CO., LTD., priority 2016, dated 2021):

Test system: ICR mice on hot plate
Assay: Hot-plate test
Format: in vivo
Details: orally
Experimental: To examine the pain relief effect of the carbamate compounds, a hot-plate test was conducted in referring to Current Protocols in Neuroscience; Behavioral Neuroscience Unit 8.9.
ICR mice (male, 25-28 g; Orient Bio, Korea) were habituated before test (in test room) for 1 hour. Animals were fasted 2 hr before administration of compounds. Compounds were orally administered at the three dose, 10 ul/g, by bodyweight (n=4-6/group). All compounds were dissolved in a vehicle of 30% (v/v) PEG 400 or 20% (v/v) Tween 80. The control group was treated the vehicle without compounds.
0.25-2.0 hr after the administration of compounds, the mice were put on a hot plate pre-heated to 55±1 (Hu, X. et al, 2008), and then, the withdrawal latency time was measured (cut-off time: 30 sec) until the point when each mouse was taking a paw off from the plate, shaking, licking a paw or hind leg, or jumping from the plate.

NC(=O)O[C@@H]1CCc2cccc(Cl)c2[C@@H]1O [Example 1, (1S, 2R)-8-chloro-1-hydroxy-1,2,3,4-tetrahydronaphthalen-2-yl carbamate]
Hot-plate test Peak Time: 1 h
